Binding data for 2 substances are collected here from PMC5362491.

Protein sequences, listed by entry. Tags and fused reporters are not part of them.
UniProt P35222: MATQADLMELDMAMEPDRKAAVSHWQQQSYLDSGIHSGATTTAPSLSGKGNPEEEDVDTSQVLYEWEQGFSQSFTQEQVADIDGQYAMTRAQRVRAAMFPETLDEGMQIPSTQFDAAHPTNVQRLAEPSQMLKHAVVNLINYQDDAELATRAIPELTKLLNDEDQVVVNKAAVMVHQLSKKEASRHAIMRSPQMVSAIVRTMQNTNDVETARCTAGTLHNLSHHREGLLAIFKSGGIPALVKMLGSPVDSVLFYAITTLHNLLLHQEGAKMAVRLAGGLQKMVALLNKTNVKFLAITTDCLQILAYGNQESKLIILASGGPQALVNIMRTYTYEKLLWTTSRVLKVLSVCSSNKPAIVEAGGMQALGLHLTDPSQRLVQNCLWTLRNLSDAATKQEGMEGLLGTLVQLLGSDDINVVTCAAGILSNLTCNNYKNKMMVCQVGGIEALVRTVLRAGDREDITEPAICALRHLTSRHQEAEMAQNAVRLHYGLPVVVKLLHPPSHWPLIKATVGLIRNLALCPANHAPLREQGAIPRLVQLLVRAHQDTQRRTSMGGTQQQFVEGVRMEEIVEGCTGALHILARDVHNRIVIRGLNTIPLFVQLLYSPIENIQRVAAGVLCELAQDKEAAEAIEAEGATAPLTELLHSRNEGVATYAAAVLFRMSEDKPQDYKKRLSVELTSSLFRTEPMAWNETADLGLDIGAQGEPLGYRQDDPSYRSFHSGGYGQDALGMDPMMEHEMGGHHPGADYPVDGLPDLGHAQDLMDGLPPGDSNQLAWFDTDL
UniProt P24385: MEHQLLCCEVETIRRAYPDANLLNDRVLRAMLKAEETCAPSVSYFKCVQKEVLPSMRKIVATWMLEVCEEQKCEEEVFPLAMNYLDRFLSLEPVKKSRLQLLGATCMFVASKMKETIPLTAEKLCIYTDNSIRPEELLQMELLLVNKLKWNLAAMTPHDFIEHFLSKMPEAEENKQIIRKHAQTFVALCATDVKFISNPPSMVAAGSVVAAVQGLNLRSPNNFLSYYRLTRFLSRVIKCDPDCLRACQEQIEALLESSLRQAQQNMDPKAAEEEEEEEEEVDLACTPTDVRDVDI
UniProt P01106: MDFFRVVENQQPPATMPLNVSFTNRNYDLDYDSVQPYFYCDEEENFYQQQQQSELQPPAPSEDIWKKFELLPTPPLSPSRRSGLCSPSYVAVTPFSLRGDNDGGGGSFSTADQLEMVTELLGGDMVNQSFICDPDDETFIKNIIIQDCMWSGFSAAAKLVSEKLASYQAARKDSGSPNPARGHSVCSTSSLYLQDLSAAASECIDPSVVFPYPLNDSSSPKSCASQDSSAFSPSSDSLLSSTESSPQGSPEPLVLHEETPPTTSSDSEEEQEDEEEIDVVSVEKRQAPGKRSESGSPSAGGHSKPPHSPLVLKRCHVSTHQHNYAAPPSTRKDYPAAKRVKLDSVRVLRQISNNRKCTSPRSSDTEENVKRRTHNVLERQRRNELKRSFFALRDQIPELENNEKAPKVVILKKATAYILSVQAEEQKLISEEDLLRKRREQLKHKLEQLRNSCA

These are yes or no findings as the source states them, for the method shown. Binding seen in cells or lysates may run through a third protein. Some binding calls cover weakened binding; strength is not graded here.

The target of the assay is β-catenin (human (endogenous in CNE2)) (UniProt P35222). In words: co-IP; reverse immunoprecipitation with anti-β-catenin antibody (2 μg, overnight, 4°C; protein A Mag Sepharose) from 500 μg protein of CNE2 cells; cells treated with 10 μM FM807 for 6 h; immunoblot. A general note: In western blotting, separated proteins are transferred to a membrane and probed.

As to Cyclin D1 (from UniProt P24385 1-295), the binding entry is listed as “binds”.

With c-Myc (from UniProt P01106 1-454), the binding entry is recorded as “binds”.
